The chains behind the UniProt entries cited, without tags or fusion partners.
UniProt Q9ULZ3: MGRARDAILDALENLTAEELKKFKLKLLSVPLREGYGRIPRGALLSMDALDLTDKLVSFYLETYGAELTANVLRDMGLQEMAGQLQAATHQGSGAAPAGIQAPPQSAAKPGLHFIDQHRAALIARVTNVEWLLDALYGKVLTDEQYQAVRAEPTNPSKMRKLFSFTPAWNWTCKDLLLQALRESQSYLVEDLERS

In PMC9679424, “The CARD8 T60 variant associates with NLRP1 and negatively regulates its activation” (Frontiers in Immunology, 2022):

Tests used:
NLRP1-FLAG = molecular target: T1, NLRP1-FLAG (human, UniProt Q9C000-1 1-1473); assay: co-IP; HEK 293T cells transiently co-transfected, 28 hours; lysate (20 mM Tris-HCl pH 7.5, 100 mM KCl, 5 mM MgCl2, 0.3% NP-40) on anti-FLAG M2 agarose beads overnight at 4 °C; immunoblotting
T1 construct: NLRP1, human, UniProt Q9C000-1, full length; The host of the purified protein is told only as a mammalian expression system; also called full-length NLRP1; Flag-tagged NLRP1; source: HEK 293T, transiently transfected, in lysate; also purified using mammalian protein expression system
T1 sequence (looked up): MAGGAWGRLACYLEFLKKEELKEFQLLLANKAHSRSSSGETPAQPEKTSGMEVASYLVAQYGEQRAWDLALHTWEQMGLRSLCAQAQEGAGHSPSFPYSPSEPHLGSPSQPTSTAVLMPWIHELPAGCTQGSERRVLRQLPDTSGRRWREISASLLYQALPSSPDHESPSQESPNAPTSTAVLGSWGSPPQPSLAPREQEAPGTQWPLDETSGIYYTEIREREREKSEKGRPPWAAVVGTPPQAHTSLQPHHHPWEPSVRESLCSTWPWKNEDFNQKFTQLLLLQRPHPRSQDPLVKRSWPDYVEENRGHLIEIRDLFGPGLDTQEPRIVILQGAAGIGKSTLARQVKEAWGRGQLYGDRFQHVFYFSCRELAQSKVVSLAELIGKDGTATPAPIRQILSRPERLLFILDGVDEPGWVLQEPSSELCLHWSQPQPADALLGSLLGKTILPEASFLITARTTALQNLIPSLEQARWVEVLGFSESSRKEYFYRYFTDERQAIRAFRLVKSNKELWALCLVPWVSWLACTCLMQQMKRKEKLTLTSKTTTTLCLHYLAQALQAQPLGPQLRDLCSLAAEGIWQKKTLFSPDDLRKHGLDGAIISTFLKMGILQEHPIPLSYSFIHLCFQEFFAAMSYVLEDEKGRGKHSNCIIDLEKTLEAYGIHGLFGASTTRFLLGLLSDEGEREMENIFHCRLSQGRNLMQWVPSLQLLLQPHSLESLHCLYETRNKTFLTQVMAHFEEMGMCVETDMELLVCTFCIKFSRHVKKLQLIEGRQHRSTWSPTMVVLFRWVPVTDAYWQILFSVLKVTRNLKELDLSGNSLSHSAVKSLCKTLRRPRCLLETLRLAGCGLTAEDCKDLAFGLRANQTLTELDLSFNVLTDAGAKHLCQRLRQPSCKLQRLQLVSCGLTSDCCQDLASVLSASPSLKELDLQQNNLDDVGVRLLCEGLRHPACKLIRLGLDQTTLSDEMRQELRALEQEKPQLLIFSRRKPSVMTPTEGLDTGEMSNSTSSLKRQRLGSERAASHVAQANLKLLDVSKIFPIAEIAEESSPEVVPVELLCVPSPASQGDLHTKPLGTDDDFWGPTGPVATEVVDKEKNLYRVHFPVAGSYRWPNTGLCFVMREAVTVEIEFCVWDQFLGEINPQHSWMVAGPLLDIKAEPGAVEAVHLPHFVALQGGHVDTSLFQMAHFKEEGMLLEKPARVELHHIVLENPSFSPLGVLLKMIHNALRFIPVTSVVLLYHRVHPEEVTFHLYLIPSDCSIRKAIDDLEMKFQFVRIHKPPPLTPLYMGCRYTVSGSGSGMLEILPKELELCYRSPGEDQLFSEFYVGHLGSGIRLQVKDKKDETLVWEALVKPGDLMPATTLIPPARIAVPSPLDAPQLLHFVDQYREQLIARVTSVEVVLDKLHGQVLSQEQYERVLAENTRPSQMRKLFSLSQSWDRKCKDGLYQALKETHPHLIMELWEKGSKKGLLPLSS

[1] = molecular target: full-length ASC (pBIND, DNA-binding domain fusion) (UniProt Q9ULZ3); assay: two-hybrid; Checkmate mammalian two-hybrid in HEK 293T cells; UPA-CARD fragments in pACT (VP16 activation domain), ASC in pBIND (DNA-binding domain), pG5luc, 1:1:1; luciferase normalised to Renilla, fold of empty vector, 24 hours
[2] = molecular target: NLRP1-FLAG truncation mutant: LRR domain (human) (UniProt Q9C000); assay: co-IP; HEK 293T cells transiently co-transfected, 28 hours; lysate (20 mM Tris-HCl pH 7.5, 100 mM KCl, 5 mM MgCl2, 0.3% NP-40) on anti-FLAG M2 agarose beads overnight at 4 °C; immunoblotting

Molecule: CARD8-T60-Strep truncation mutant: ZU5 subdomain (from UniProt Q9Y2G2-5) (domain or fragment)
- binding (NLRP1-FLAG): binds

Molecule: NLRP1^UPA-CARD (pACT, VP16 activation domain fusion) (from UniProt Q9C000-1) (domain or fragment)
- binding [1]: binds

B1: CARD8-T60-Strep (natural protein, human, UniProt Q9Y2G2-5 1-537, looked up)
chain: MEKKECPEKSSSSEEELPRRDSGSSRNIDASKLIRLQGSRKLLVDNSIRELQYTKTGIFFQAEACVTNDTVYRELPCVSETLCDISHFFQEDDETEAEPLLFRAVPECQLSGGDIPSVSEEQESSEGQDSGDICSEENQIVSSYASKVCFEIEEDYKNRQFLGPEGNVDVELIDKSTNRYSVWFPTAGWYLWSATGLGFLVRDEVTVTIAFGSWSQHLALDLQHHEQWLVGGPLFDVTAEPEEAVAEIHLPHFISLQAGEVDVSWFLVAHFKNEGMVLEHPARVEPFYAVLESPSFSLMGILLRIASGTRLSIPITSNTLIYYHPHPEDIKFHLYLVPSDALLTKAIDDEEDRFHGVRLQTSPPMEPLNFGSSYIVSNSANLKVMPKELKLSYRSPGEIQHFSKFYAGQMKEPIQLEITEKRHGTLVWDTEVKPVDLQLVAASAPPPFSGAAFVKENHRQLQARMGDLKGVLDDLQDNEVLTENEKELVEQEKTRQSKNEALLSMVEKKGDLALDVLFRSISERDPYLVSYLRQQNL
notes: CARD8, T60 isoform, human, UniProt Q9Y2G2-5, full length; The host of the purified protein is told only as a mammalian expression system; also called CARD8-Strep; T60 isoform of CARD8; source: HEK 293T, transiently transfected, in lysate; also purified using mammalian protein expression system
- binding [2]: binds

Results are given in words; binding and its absence hold for the method and conditions named. Binding can be weak; no strength is given. For part of these data: In cells and extracts the contact can be indirect. For part of these data: Where a sequence is shown, tags or fusion partners need not be part of it.
